The campaign covered roughly 320,000 compounds. About 22,000 (6.9%) were called active. Inconclusive results, whose numbers are uncertain, are shown with a selection of clear calls. Calls follow the shape of the dose curve; as a rule, active = well fitted inhibition curve with a large enough effect; inconclusive = small, poorly fitted or top-dose-only effect, or another doubt; inactive = no such curve, though single readings can be large or run the other way. A potency beside an inconclusive call is a rough fit, not a confirmed value.
Test: Primary qHTS for delayed death inhibitors of the malarial parasite plastid, 96 hour incubation
Conditions: P. falciparum luciferase reporter growth; series mostly up to 28.7 µM
Procedure, shortened: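 Luminescence readout: decreased luciferase signal marks inhibited growth of reporter-expressing P. falciparum in infected red cells (2% hematocrit, 0.05% parasitemia final), exposed to compound two generations (96 h, 37 C, 5% CO2).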
Potency is read from the fitted curve at half-maximal effect.

Row | Compound | Potency
1 | Cc1ccc(C(=O)COc2ccccc2N2C(=O)c3ccccc3C2=O)cc1 | active: 3.29 µM
2 | O=C(Nc1nc2c(s1)CCCC2)c1cc2n(n1)C(C(F)(F)F)CC(C1CC1)N2 (stereo unspecified) | inconclusive: 11.7 µM [inhibitor, single point]
3 | Cc1cc(-n2c(C)cc(C(=O)CSc3nncn3C(C)C)c2C)no1 | inconclusive: 18.5 µM [inhibitor, single point]
4 | O=C(Cn1cnc2ccccc2c1=O)Nc1ccc2c(c1)OCCO2 | inactive
5 | O=C(COc1ccc([N+](=O)[O-])cc1Cl)N(C1CCCCC1)C1CCS(=O)(=O)C1 (stereo unspecified) | inactive
6 | CCCCc1ccc(NC(=S)N2CCN(C(=O)c3ccco3)CC2)cc1 | inconclusive: 18.5 µM [inhibitor, single point]
7 | COc1cccc(-n2c(CNc3ccc(F)cc3)nnc2SCC(N)=O)c1 | inconclusive: 1.85 µM [inhibitor, partial curve, poor fit]
8 | CCOC(=O)N1CCN(C(=O)CCCn2c(=S)[nH]c3ccsc3c2=O)CC1 | inconclusive: 5.22 µM [inhibitor, partial curve, poor fit]
9 | O=C(COC(=O)c1ccc(NS(=O)(=O)c2cccs2)cc1O)NC1CCCCC1 | inactive
10 | Cc1cc(C)c2c(n1)nn1c(NCCCN(C)C)cc(C)nc21 | inconclusive: 18.5 µM [inhibitor, single point]
11 | Cc1ccc(C2=NS(=O)(=O)N(C)C(C(=O)NCc3ccc4c(c3)OCO4)=C2)cc1 | inactive
12 | Cc1cccc(NC(=O)CN(C)S(=O)(=O)c2ccc3c(c2)n(C)c(=O)c(=O)n3C)c1C | inconclusive: 13.1 µM [inhibitor, single point]
13 | Cc1nn(-c2ccccc2)c2[nH]c(=O)c(CNc3ccc(N4CCOCC4)cc3)cc12 | inactive
14 | CCCCn1c(N)c(N(CCOC)C(=O)CSCc2ccccc2C)c(=O)[nH]c1=O | inactive
15 | O=C(Cn1cnc2cc([N+](=O)[O-])ccc2c1=O)NC(=O)NCc1ccccc1 | inconclusive: 16.5 µM [inhibitor, partial curve, poor fit]
16 | CC1CCN(Cc2c(C(=O)N/N=C/c3ccccc3O)nnn2-c2nonc2N)CC1 | inactive
17 | Cc1n(CC(O)COCc2ccccc2)c2ccccc2[n+]1C (stereo unspecified) | active: 3.29 µM
18 | O=C(NCc1ccccn1)c1ccc2c(=O)n(CCc3ccccc3)c(=O)[nH]c2c1 | inconclusive: 13.1 µM [inhibitor, partial curve, poor fit]
19 | COc1ccccc1NS(=O)(=O)c1ccc(C(=O)Nc2ncccc2O)cc1 | inconclusive: 5.22 µM [inhibitor, partial curve, poor fit]
20 | COc1ccc(C2c3ccc(O)cc3Oc3ncn(Cc4ccco4)c(=N)c32)cc1 (stereo unspecified) | inconclusive: 9.28 µM [inhibitor, partial curve]
21 | COCC(=O)NC1CCN(CC(=O)Nc2ccc(OC)cc2[N+](=O)[O-])CC1 | inconclusive: 3.29 µM [inhibitor, full curve]
22 | O=C(COc1ccc(F)cc1Cl)Nc1cccc(S(=O)(=O)N2CCCCCC2)c1 | active: 13.1 µM

4 entries picked at random from those above, as already listed:
Row | Compound | Potency
7 | COc1cccc(-n2c(CNc3ccc(F)cc3)nnc2SCC(N)=O)c1 | inconclusive: 1.85 µM [inhibitor, partial curve, poor fit]
15 | O=C(Cn1cnc2cc([N+](=O)[O-])ccc2c1=O)NC(=O)NCc1ccccc1 | inconclusive: 16.5 µM [inhibitor, partial curve, poor fit]
8 | CCOC(=O)N1CCN(C(=O)CCCn2c(=S)[nH]c3ccsc3c2=O)CC1 | inconclusive: 5.22 µM [inhibitor, partial curve, poor fit]
22 | O=C(COc1ccc(F)cc1Cl)Nc1cccc(S(=O)(=O)N2CCCCCC2)c1 | active: 13.1 µM

(cont.)

Row | Compound | Potency
23 | CC(OC(=O)C1CCCC1)C(=O)Nc1ccc(S(N)(=O)=O)cc1 (stereo unspecified) | inactive
24 | N#CC1=C(N)C(C#N)(C#N)[C@H](c2ccncc2)[C@H]2CN(C(=O)OCc3ccccc3)CC=C12 | inconclusive: 11.7 µM [inhibitor, partial curve, poor fit]
25 | CCn1cc(C(=O)NCc2ccco2)c(=O)c2cc(S(=O)(=O)N3CC(C)CC(C)C3)ccc21 (stereo unspecified) | inactive
26 | COc1cccc(-c2nc(CS(=O)(=O)CC(=O)NC3CCCc4ccccc43)c(C)o2)c1 (stereo unspecified) | inconclusive: 14.7 µM [inhibitor, partial curve, poor fit]
27 | COc1ccc2c(/C=N/NS(=O)(=O)c3ccc(C)cc3)c[nH]c2c1 | inactive
28 | O=C(CC(=O)NC1CCCCC1)N/N=C/c1cccc2ccccc12 | inconclusive: 18.5 µM [inhibitor, single point]
29 | NNC(=O)CNC(=O)c1ccccc1F | inactive
30 | O=C(CSc1ncnc2nc[nH]c12)c1ccc([N+](=O)[O-])cc1 | inconclusive: 4.15 µM [inhibitor, partial curve, poor fit]
31 | Cc1ccc(S(=O)(=O)N(C)C)cc1-n1c(SCC(=O)Nc2ccccc2)nc2ccccc2c1=O | inconclusive: 9.28 µM [inhibitor, partial curve]
32 | CC1C(=O)Nc2ccccc2N1C(=O)c1ccc(F)cc1F (stereo unspecified) | inactive
33 | COc1ccc2c(c1OC)C(=O)N1C2SC(C)(C)[C@H]1C(=O)NC(C)C (stereo partly specified) | inactive
34 | Cc1ccc(-c2nn(C(C)(C)C)c3ncnc(NS(=O)(=O)c4ccc([N+](=O)[O-])cc4)c23)cc1 | inconclusive: 5.22 µM [inhibitor, partial curve]
35 | COc1ccc(CC(=O)Nc2ccc(S(=O)(=O)N3CCOCC3)cc2)cc1 | inconclusive: 9.28 µM [inhibitor, partial curve, poor fit]
36 | O=C(Nc1ccccc1OC(F)F)c1cccc(S(=O)(=O)N2CCCC2)c1 | inconclusive: 0.415 µM [inhibitor, full curve, poor fit]
37 | CCc1ccc(/C=C2\SC(=S)N(CCCC(=O)Nc3ccc(C(=O)O)cc3)C2=O)cc1 | inconclusive: 10.4 µM [inhibitor, single point]
38 | Cc1ccc(NS(=O)(=O)c2ccc3c(c2)oc(=O)n3C)cc1 | active: 2.62 µM
39 | Cc1cc(N/N=C2/CCCc3ccccc32)nc2ccccc12 | inconclusive: 6.57 µM [inhibitor, partial curve, poor fit]
40 | Cn1c(Cl)c(C(=O)Nc2ccccc2)c2ccccc21 | inactive
41 | COc1ccc(C(=O)COC(=O)c2cc(=O)[nH]c3ccccc23)c(OC)c1 | inactive
42 | Cc1ccc(Sc2ccc(NC(=O)CCl)cc2)c(C)c1 | inconclusive: 4.65 µM [inhibitor, partial curve, poor fit]
43 | Cc1cccc(NC(=O)C2CC(O)CN2C(=O)Oc2ccccc2)c1 (stereo unspecified) | inconclusive: 4.65 µM [inhibitor, partial curve, poor fit]
44 | Cc1oc(-c2ccccc2Cl)nc1CS(=O)CC(=O)NCCCN1CC(C)CC(C)C1 (stereo unspecified) | inconclusive: 18.5 µM [inhibitor, single point]

Row | Compound | Potency
45 | COc1cccc(NC(=O)COc2cc(C)cc3oc(=O)cc(C)c23)c1 | inconclusive: 2.08 µM [inhibitor, full curve, poor fit]
46 | CC(C)(C)c1ccc(S(=O)(=O)/N=C2\C=C(NS(=O)(=O)c3ccccc3)C(=O)c3ccccc32)cc1 | inactive
47 | C=CCn1c(C)cc(C(=O)CSc2nnc(Cc3ccccc3)o2)c1C | inconclusive: 18.5 µM [inhibitor, single point]
48 | O=c1cc(-c2ccccc2)[nH]c2cc(F)ccc12 | inconclusive: 13.1 µM [inhibitor, single point]
49 | COc1ccc(N(CC(=O)NCc2ccc3c(c2)OCO3)C(=O)c2csnn2)cc1 | inconclusive: 18.5 µM [inhibitor, single point]
50 | O=C(CSc1n[nH]c(-c2ccccc2Cl)n1)NCc1cccc(C(=O)O)c1 | inconclusive: 13.1 µM [inhibitor, partial curve, poor fit]
51 | COc1ccc(CCNCc2csc3nc4ccccc4n23)cc1OC | inconclusive: 10.4 µM [inhibitor, partial curve, poor fit]
52 | N#Cc1ccccc1S(=O)(=O)N1CCN(CC(O)CN2CCOCC2)CC1 (stereo unspecified) | inactive
53 | O=C(C1=C[C@@H](c2coc3ccccc3c2=O)C[C@@H](OCc2ccc(CO)cc2)O1)N1CCCCCCC1 | inconclusive: 1.85 µM [inhibitor, partial curve, poor fit]
54 | Clc1ccc2c(c1)C(OC1CN3CCC1CC3)c1ccccc1CS2 (stereo unspecified) | inconclusive: 11.7 µM [inhibitor, partial curve, poor fit]
55 | CN1C(=O)C(Cc2nc3ccccc3c(=O)n2-c2ccccc2)c2ccccc21 (stereo unspecified) | inconclusive: 16.5 µM [inhibitor, partial curve, poor fit]
56 | CCN(CC)CCCn1c2c(c(SCC(=O)Nc3ccc(C)c(F)c3)nc1=O)CCC2 | inconclusive: 18.5 µM [inhibitor, single point]
57 | CCN(CC)C(=O)/C(Cl)=C(\C)OP(=O)(OC)OC | inconclusive: 7.57 µM [inhibitor, partial curve, poor fit]
58 | O=C(c1cc2cc(F)ccc2[nH]1)N1CCN(Cc2ccc3c(c2)OCO3)CC1 | inconclusive: 18.5 µM [inhibitor, single point]
59 | O=C(NNS(=O)(=O)c1ccccc1[N+](=O)[O-])c1cc2ccccc2cc1O | inactive
60 | COc1ccc(S(=O)(=O)c2c[nH]c(=S)[nH]c2=O)cc1Cl | inactive
61 | O=C(O)C(Cc1ccccc1)N1CCS(=O)(=O)CC1 (stereo unspecified) | inactive
62 | COc1ccc(C(=O)C(CCC(CNC(C)(C)C)C(=O)c2ccc(OC)cc2)CNC(C)(C)C)cc1 (stereo unspecified) | inconclusive: 3.29 µM [inhibitor, single point]
63 | Cc1ccc(C(=O)CSc2nnc(C)s2)cc1 | inconclusive: 18.5 µM [inhibitor, single point]
64 | COc1ccc(C(=O)N2CCN(S(=O)(=O)c3ccc(Br)cc3)CC2)cc1 | inconclusive: 14.7 µM [inhibitor, partial curve, poor fit]
65 | Cc1ccc(S(=O)(=O)N/N=C/c2cccs2)cc1 | inconclusive: 18.5 µM [inhibitor, single point]
66 | CCCCN(CCCC)C(=S)NC(=O)c1ccccc1Cl | inactive

Reference: PubChem BioAssay AID504834 (National Center for Advancing Translational Sciences (NCATS), 2011)
